# The list does not hold the whole screen: it gathers tests that were run many times, whatever their T/C, doses with no T/C, and many T/C values between a quarter and a half above the control. Other doses and runs of a compound stand elsewhere. T/C: endpoint of the treated group in % of that of the vehicle group. Schedule codes are those of the source, read here as Q, the interval in days (D) or hours (H), X, the number of doses. Some doses were run more than once; the values are given in rising order. Some T/C values are followed by the survivors on the day toxicity was checked, most often the fifth; where none is given, no animal had died by that day. Some entries give survivors of the animals treated and no T/C: the source holds a T/C of zero for them, seemingly a mark for toxic or unscored doses. Survivors were counted at the toxicity check, usually on the fifth day, unless a day is given; later deaths do not show.
# Tested on: MX-1 breast xenograft, nude mice, tumor weight T/C
# Assay: NCI In Vivo Anticancer Drug Screen. Data for tumor model Human Mammary Carcinoma MX-1 Xenograft (intrarenal inoculation) in NU/NU Swiss (nude) mice
# Conditions: T/C endpoint: mean tumor weight change, higher T/C = larger tumour; for T/C: evaluated on day 11
# Summary of the method: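 Antitumour effect measured in vivo against vehicle controls, expressed as T/C.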
# [1] = dose: 150.0 mg/kg/injection, schedule: Q04DX003 (sc), vehicle: Klucel (hydroxypropylcellulose) (HPC)
# [2] = dose: 100.0 mg/kg/injection, schedule: Q01DX010 (sc), vehicle: saline
# [3] = dose: 200.0 mg/kg/injection, schedule: Q01DX010 (sc), vehicle: saline
# [4] = dose: 800.0 mg/kg/injection, schedule: Q01DX010 (sc), vehicle: saline with Tween-80
# [5] = dose: 8.0 mg/kg/injection, schedule: Q04DX003 (sc), vehicle: saline + alcohol
compound,measurement,setting,value
N#C[Se-].c1ccc([Te+](c2ccccc2)c2ccccc2)cc1,T/C,"dose: 15.0 mg/kg/injection, schedule: Q04DX003 (sc), vehicle: Klucel (hydroxypropylcellulose) (HPC)",127 % of control
same,survivor count,"dose: 37.5 mg/kg/injection, schedule: Q04DX003 (sc), vehicle: Klucel (hydroxypropylcellulose) (HPC)",1 of 6 on day 11
same,survivor count,"dose: 75.0 mg/kg/injection, schedule: Q04DX003 (sc), vehicle: Klucel (hydroxypropylcellulose) (HPC)",0 of 6 on day 11
same,survivor count,[1],0 of 6 on day 11
same,survivor count,"dose: 300.0 mg/kg/injection, schedule: Q04DX003 (sc), vehicle: Klucel (hydroxypropylcellulose) (HPC)",0 of 6 on day 11
C=CCNc1ccc(C)cc1,survivor count,"dose: 200.0 mg/kg/injection, schedule: Q01DX010 (sc), vehicle: Klucel (hydroxypropylcellulose) (HPC)",1 of 3 on day 11
same,survivor count,"dose: 400.0 mg/kg/injection, schedule: Q01DX010 (sc), vehicle: Klucel (hydroxypropylcellulose) (HPC)",1 of 5 on day 11
same,survivor count,"dose: 800.0 mg/kg/injection, schedule: Q01DX010 (sc), vehicle: Klucel (hydroxypropylcellulose) (HPC)",0 of 6 on day 11
O=C1N[C@@H]([C@H]2CC[C@H](Cl)CN2)C(=O)N[C@H]1[C@H]1CC[C@H](Cl)CN1,survivor count,"dose: 10.0 mg/kg/injection, schedule: Q01DX010 (sc), vehicle: water",0 of 3 on day 11
O=C(C#Cc1ccccc1)c1ccccc1,survivor count,[1],2 of 6 on day 11
CN(C)C(=O)c1cccc(COc2ccc(N3C(N)=NC(N)=NC3(C)C)cc2Cl)c1,survivor count,"dose: 50.0 mg/kg/injection, schedule: Q01DX010 (sc), vehicle: saline",1 of 2 on day 11
COc1cccc2c1C(=O)c1c(O)c3c(c(O)c1C2=O)CC(O)(C(=O)CO)CC3OC1CC(N)C(O)C(C)O1 (configuration not stated),survivor count,[2],1 of 6 on day 11
same,survivor count,[3],0 of 6 on day 11
O=C(Nc1ccccc1C(=O)O)c1cc([N+](=O)[O-])cc([N+](=O)[O-])c1,T/C,"dose: 400.0 mg/kg/injection, schedule: Q04DX003 (sc), vehicle: saline with Tween-80",134 % of control
same,survivor count,"dose: 800.0 mg/kg/injection, schedule: Q04DX003 (sc), vehicle: saline with Tween-80",0 of 6 on day 11
N#CN=[N+]([O-])c1ccc(C(=O)O)cc1,survivor count,"dose: 90.0 mg/kg/injection, schedule: Q04DX003 (sc), vehicle: Klucel (hydroxypropylcellulose) (HPC)",0 of 6 on day 11
C(=N/NC1=NCCN1)/c1c2ccccc2c(/C=N\NC2=NCCN2)c2ccccc12,survivor count,"dose: 300.0 mg/kg/injection, schedule: Q04DX003 (sc), vehicle: suspension in saline",3 of 6 on day 11
CCOC(=O)c1ccc(NC(=O)Nc2nccs2)cc1,survivor count,"dose: 50.0 mg/kg/injection, schedule: Q01DX010 (sc), vehicle: saline with Tween-80",1 of 3 on day 11
same,T/C,"dose: 200.0 mg/kg/injection, schedule: Q01DX010 (sc), vehicle: saline with Tween-80",126 % of control
same,T/C,[4],134 % of control
CC[n+]1c(-c2ccccc2)c2cc(N)ccc2c2ccc(N)cc21,survivor count,"dose: 120.0 mg/kg/injection, schedule: Q04DX003 (sc), vehicle: saline",3 of 6 on day 11
COc1cccc2c1C(=O)c1c(O)c3c(c(O)c1C2=O)CC(O)(/C(C)=N/NC(=O)CCCCC(=O)N/N=C(\C)C1(O)Cc2c(O)c4c(c(O)c2C(OC2CC(N)C(O)C(C)O2)C1)C(=O)c1c(OC)cccc1C4=O)CC3OC1CC(N)C(O)C(C)O1 (configuration not stated),survivor count,"dose: 100.0 mg/kg/injection, schedule: Q04DX003 (sc), vehicle: water",0 of 6 on day 11
C=CS(=O)(=O)c1ccccc1,survivor count,[3],1 of 2 on day 11
CNNCc1ccc(C(=O)NC(C)C)cc1,survivor count,"dose: 400.0 mg/kg/injection, schedule: Q01DX010 (sc), vehicle: saline",1 of 3 on day 11
same,survivor count,"dose: 800.0 mg/kg/injection, schedule: Q01DX010 (sc), vehicle: saline",0 of 3 on day 11 and 1 of 3 on day 11
Cc1cc2c(c3oc(C4(C)OC4C4OC4C)cc(=O)c13)C(=O)c1c(O)c(C3CC(C)(N(C)C)C(O)C(C)O3)cc(C3CC(N(C)C)C(O)C(C)O3)c1C2=O (configuration not stated),survivor count,"dose: 0.2 mg/kg/injection, schedule: Q04DX003 (sc), vehicle: saline",0 of 6 on day 11
same,survivor count,"dose: 0.4 mg/kg/injection, schedule: Q04DX003 (sc), vehicle: saline",0 of 6 on day 11
CCCCCCCCCCCCSC1=C(Cl)C(=O)C(OC)=C(OC)C1=O,T/C,"dose: 150.0 mg/kg/injection, schedule: Q04DX003 (sc), vehicle: saline with Tween-80",131 % of control [4 of 5 alive on day 11]
same,survivor count,"dose: 1200.0 mg/kg/injection, schedule: Q04DX003 (sc), vehicle: saline with Tween-80",3 of 6 on day 11
ClCCCN1CCN(CCCl)CC1,survivor count,"dose: 15.0 mg/kg/injection, schedule: Q04DX003 (sc), vehicle: saline",2 of 6 on day 11
same,survivor count,"dose: 30.0 mg/kg/injection, schedule: Q04DX003 (sc), vehicle: saline",0 of 6 on day 11 and 1 of 6 on day 11
same,survivor count,"dose: 37.5 mg/kg/injection, schedule: Q04DX003 (sc), vehicle: saline",0 of 6 on day 11
same,survivor count,"dose: 75.0 mg/kg/injection, schedule: Q04DX003 (sc), vehicle: saline",0 of 6 on day 11
same,survivor count,"dose: 150.0 mg/kg/injection, schedule: Q04DX003 (sc), vehicle: saline",0 of 6 on day 11
same,survivor count,"dose: 300.0 mg/kg/injection, schedule: Q04DX003 (sc), vehicle: saline",0 of 6 on day 11
CC(=O)Oc1ccccc1O,T/C,"dose: 300.0 mg/kg/injection, schedule: Q04DX003 (sc), vehicle: saline + Tween-80 + alcohol",126 % of control
O=C1C(O)=C(c2ccccc2)C(=O)C(O)=C1c1ccccc1,survivor count,"dose: 600.0 mg/kg/injection, schedule: Q04DX003 (sc), vehicle: saline",0 of 6 on day 11
CSC1SCC2C(=O)N(C)C(C(C)C)C(=O)OCC(NC(=O)c3cnc4ccccc4n3)C(=O)NC(C)C(=O)N(C)C1C(=O)N(C)C(C(C)C)C(=O)OCC(NC(=O)c1cnc3ccccc3n1)C(=O)NC(C)C(=O)N2C (configuration not stated),survivor count,"dose: 480.0 micrograms/kg/injection, schedule: Q01DX010 (sc), vehicle: saline",0 of 3 on day 11
Nc1n[nH]c(N)n1,survivor count,"dose: 1600.0 mg/kg/injection, schedule: Q01DX010 (sc), vehicle: saline",0 of 3 on day 11
COc1ccc(C(=O)/C(Br)=C/C(=O)O)cc1,survivor count,[2],1 of 3 on day 11
CCCCNCCCNCCCNC(=O)c1csc(-c2csc(CCNC(=O)C(NC(=O)C(C)C(O)C(C)NC(=O)C(NC(=O)c3nc(C(CC(N)=O)NCC(N)C(N)=O)nc(N)c3C)C(OC3OC(CO)C(O)C(O)C3OC3OC(CO)C(O)C(OC(N)=O)C3O)c3cnc[nH]3)C(C)O)n2)n1 (configuration not stated),survivor count,"dose: 64.0 mg/kg/injection, schedule: Q01DX010 (sc), vehicle: saline",0 of 3 on day 11
CCCC(=O)OCc1cc(=O)n(C)c2c3c4c(cc12)c(C)cc(=O)n4CO3,T/C,"dose: 100.0 mg/kg/injection, schedule: Q01DX010 (sc), vehicle: Klucel (hydroxypropylcellulose) (HPC)",137 % of control
O=c1nc(Oc2ccccc2)nc2ncccn12,survivor count,"dose: 400.0 mg/kg/injection, schedule: Q01DX010 (sc), vehicle: saline with Tween-80",1 of 3 on day 11
same,survivor count,[4],0 of 3 on day 11
COC1/C=C/C=C(/C)Cc2cc(O)c(Cl)c(c2)N(C)C(=O)CC(OC(=O)C(C)C)C2(C)OC2C(C)C2CC1(O)NC(=O)O2 (configuration not stated),T/C,"dose: 4.0 mg/kg/injection, schedule: Q04DX003 (sc), vehicle: saline + alcohol","17, 25, 43, 59 % of control"
same,T/C,[5],"4 [4 of 6 alive on day 11], 6, 63 % of control"
same,survivor count,[5],3 of 6 on day 11
same,survivor count,"dose: 16.0 mg/kg/injection, schedule: Q04DX003 (sc), vehicle: saline + alcohol",1 of 6 on day 11
same,survivor count,"dose: 32.0 mg/kg/injection, schedule: Q04DX003 (sc), vehicle: saline + alcohol",0 of 6 on day 11
O=c1[nH]c2c(ccc3cnccc32)c2c1CCC2,T/C,"dose: 100.0 mg/kg/injection, schedule: Q04DX003 (sc), vehicle: suspension in saline",126 % of control
CCCNC1=C(C)C(=O)C2=C(C1=O)[C@H](COC(N)=O)[C@]1(OC)[C@@H]3N[C@@H]3CN21,survivor count,"dose: 24.0 mg/kg/injection, schedule: Q04DX003 (sc), vehicle: suspension in saline",0 of 6 on day 11
same,survivor count,"dose: 48.0 mg/kg/injection, schedule: Q04DX003 (sc), vehicle: suspension in saline",0 of 6 on day 11

# Reference: PubChem BioAssay AID296 (DTP/NCI, 2004)
